Measured values: patent publication US20250255945A1, “CLICK CHEMISTRY HLA POLYPEPTIDES” (IMMUNEO Therapeutics GmbH, priority 2024, published 2025)
At least one structure is not confirmed: it was looked up by name or label, or the drawing left a doubt.

System: prostate cancer with bone metastases
Assay: Case study Example 4: immunization of a subject with prostate cancer and bone metastases with PrCa-PC1/PrCa-PC2
Assay type: in vivo, human
Settings: androgen receptor inhibitor therapy, before immunization; initial PSA 99.77 ng/mL
Protocol: • Subject: A person • Date of Admission: Oct. 4, 2022 • Complaints: Urinary urgency, interrupted urination, nocturia, and erectile dysfunction
• PSA Level: 99.77 ng/mL (See FIG. 9A) • MRI Examination: Moderately enlarged prostate with extensive, organ-crossing, and infiltrating prostate cancer on the left side. • PSMA-PET Examination: Involvement of the middle gland and apex on the left periphery, infiltrating the left seminal vesicles. No PSMA positive lymph node metastases found, but sclerotic bone metastases reported (See FIG. 9B). • First Biopsies: Taken from bone metastases in the area of the lateral mass of the left sacrum. Pathological assessment confirmed malignant prostatic origin.
(§1) • Step (a): the pharmaceutical composition comprising the 12 synthetic HLA tumor antigen polypeptides and XS15 as adjuvant were synthesized as chemical peptides, • Step (b): the 12 HLA tumor antigen polypeptides were mixed in 25% DMSO/H2O application solution and divided multiple vial units of 1 nil each, Dose per HLA tumor antigen polypeptide: 300 μg
as §1, with “7” for “12”, “ml” for “nil”, “μg […]” for “μg”

## CC(O)(CS(=O)(=O)c1ccc(F)cc1)C(=O)Nc1ccc(C#N)c(C(F)(F)F)c1 (stereo not shown) [Bicalutamide]
  PSA level: significant PSA decline to normal levels
